± gives the standard deviation of the averaged measurements. Only a part is listed here, and it is no random draw.

The chains behind the UniProt entries cited, without tags or fusion partners. Where a name states a change or a piece, a line headed by the entry shows the natural chain unless it says otherwise.
UniProt Q9UNS2: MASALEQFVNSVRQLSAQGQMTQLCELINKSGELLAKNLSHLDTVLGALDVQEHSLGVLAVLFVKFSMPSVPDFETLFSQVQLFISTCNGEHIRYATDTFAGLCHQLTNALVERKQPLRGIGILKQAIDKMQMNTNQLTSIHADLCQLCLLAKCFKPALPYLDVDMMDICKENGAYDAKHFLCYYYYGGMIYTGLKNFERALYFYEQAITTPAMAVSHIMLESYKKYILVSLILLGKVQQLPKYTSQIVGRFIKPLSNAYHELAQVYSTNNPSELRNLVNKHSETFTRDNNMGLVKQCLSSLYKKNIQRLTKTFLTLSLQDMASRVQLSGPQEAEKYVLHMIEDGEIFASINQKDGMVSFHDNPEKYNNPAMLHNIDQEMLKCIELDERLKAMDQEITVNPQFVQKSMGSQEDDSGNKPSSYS
UniProt Q9UHD1: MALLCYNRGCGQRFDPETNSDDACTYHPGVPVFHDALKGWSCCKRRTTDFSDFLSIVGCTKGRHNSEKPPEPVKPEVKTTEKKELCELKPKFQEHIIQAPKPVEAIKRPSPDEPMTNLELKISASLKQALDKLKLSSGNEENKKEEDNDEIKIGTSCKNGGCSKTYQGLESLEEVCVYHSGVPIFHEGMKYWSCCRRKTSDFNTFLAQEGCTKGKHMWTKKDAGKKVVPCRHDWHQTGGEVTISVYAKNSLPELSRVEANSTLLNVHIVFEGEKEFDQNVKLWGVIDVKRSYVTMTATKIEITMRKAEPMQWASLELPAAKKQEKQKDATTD
UniProt Q9UM21: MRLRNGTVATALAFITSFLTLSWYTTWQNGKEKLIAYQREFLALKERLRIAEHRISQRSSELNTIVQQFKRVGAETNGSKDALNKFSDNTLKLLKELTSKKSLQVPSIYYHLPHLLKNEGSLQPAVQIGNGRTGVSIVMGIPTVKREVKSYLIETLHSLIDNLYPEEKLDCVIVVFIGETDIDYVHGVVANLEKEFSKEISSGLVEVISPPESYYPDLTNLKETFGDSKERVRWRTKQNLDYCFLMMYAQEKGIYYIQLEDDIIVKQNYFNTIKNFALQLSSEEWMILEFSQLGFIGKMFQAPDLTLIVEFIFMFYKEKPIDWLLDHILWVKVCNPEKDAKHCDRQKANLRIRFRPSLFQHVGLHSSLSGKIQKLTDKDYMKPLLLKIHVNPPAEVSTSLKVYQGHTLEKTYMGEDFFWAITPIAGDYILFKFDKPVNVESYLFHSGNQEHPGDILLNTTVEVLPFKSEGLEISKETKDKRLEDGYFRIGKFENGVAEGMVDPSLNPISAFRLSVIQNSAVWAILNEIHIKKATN
UniProt Q9UHA4, whole entry: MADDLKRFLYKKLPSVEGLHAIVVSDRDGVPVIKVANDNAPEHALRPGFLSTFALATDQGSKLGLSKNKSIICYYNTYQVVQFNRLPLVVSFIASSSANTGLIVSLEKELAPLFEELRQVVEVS
UniProt Q9UMX5: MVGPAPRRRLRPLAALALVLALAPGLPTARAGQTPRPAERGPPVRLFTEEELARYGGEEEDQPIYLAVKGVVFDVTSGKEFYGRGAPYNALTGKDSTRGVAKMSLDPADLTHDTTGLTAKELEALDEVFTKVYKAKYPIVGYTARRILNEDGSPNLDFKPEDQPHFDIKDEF
UniProt Q9UJK0: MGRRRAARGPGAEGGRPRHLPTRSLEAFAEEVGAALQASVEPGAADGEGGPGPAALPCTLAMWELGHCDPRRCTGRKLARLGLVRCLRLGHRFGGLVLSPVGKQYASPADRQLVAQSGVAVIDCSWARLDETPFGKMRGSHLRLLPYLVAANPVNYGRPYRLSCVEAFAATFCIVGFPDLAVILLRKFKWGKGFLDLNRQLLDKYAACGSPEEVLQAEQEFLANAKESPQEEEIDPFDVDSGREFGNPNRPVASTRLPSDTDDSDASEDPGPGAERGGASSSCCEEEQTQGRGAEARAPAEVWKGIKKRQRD
UniProt Q9UH92: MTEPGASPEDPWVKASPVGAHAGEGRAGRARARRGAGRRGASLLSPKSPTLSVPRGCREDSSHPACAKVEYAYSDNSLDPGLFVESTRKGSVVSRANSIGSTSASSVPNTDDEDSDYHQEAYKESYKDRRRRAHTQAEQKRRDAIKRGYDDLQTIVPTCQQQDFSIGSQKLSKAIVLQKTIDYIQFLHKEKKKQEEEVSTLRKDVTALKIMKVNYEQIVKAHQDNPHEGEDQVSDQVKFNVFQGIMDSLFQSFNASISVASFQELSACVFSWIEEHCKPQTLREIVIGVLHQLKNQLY
UniProt Q9UID3: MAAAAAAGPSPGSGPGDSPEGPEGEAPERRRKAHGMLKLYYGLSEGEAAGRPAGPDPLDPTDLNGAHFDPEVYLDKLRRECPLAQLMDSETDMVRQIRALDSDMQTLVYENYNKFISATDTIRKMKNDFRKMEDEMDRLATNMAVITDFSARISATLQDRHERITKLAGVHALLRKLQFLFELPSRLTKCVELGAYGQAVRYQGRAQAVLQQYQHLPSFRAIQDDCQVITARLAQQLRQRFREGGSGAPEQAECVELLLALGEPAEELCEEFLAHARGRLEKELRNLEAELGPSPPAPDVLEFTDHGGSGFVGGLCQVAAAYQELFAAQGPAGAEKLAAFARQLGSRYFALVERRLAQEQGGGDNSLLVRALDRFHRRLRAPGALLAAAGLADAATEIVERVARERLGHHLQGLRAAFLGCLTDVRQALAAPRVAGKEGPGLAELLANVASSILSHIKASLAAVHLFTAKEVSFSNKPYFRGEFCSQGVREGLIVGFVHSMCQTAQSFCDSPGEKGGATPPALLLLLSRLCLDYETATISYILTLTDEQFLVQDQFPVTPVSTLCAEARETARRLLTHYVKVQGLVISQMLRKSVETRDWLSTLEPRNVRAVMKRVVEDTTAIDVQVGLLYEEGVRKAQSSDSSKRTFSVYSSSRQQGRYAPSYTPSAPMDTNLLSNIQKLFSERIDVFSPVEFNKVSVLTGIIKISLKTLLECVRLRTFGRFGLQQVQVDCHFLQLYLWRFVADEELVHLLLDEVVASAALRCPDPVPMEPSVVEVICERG
UniProt Q9UJX5, whole entry: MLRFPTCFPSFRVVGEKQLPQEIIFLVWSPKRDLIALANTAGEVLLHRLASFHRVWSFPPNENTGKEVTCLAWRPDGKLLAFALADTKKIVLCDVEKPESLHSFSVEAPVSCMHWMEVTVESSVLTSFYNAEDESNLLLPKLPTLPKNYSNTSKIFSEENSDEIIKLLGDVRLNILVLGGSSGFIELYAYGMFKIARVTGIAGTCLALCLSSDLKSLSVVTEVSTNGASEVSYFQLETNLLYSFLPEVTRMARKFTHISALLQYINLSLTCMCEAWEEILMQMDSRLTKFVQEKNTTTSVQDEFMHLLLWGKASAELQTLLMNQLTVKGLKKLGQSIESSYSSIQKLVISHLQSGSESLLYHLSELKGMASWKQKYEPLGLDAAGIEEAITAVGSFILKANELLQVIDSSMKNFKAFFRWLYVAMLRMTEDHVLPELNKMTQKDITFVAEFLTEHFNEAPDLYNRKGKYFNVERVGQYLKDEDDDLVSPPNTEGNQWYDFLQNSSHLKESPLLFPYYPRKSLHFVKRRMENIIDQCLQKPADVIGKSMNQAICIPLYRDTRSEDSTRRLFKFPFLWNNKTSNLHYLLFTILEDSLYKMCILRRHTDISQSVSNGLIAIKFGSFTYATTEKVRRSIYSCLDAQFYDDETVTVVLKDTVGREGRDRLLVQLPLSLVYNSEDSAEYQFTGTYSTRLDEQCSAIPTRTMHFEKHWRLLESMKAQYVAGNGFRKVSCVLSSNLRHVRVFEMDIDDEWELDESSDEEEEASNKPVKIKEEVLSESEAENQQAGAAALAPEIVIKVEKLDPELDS
UniProt Q9UII2: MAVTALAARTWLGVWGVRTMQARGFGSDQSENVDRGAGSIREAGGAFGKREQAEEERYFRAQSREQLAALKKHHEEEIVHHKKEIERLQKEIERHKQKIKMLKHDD
UniProt Q9UPY8, whole entry: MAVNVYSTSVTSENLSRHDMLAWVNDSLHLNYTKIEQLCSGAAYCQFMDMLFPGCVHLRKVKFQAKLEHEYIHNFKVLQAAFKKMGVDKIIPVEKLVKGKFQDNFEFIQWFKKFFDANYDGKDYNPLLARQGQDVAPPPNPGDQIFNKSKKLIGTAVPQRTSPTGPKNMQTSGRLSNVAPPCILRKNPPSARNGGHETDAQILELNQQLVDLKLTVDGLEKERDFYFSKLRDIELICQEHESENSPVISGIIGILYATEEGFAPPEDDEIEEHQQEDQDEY
UniProt Q9UJY5: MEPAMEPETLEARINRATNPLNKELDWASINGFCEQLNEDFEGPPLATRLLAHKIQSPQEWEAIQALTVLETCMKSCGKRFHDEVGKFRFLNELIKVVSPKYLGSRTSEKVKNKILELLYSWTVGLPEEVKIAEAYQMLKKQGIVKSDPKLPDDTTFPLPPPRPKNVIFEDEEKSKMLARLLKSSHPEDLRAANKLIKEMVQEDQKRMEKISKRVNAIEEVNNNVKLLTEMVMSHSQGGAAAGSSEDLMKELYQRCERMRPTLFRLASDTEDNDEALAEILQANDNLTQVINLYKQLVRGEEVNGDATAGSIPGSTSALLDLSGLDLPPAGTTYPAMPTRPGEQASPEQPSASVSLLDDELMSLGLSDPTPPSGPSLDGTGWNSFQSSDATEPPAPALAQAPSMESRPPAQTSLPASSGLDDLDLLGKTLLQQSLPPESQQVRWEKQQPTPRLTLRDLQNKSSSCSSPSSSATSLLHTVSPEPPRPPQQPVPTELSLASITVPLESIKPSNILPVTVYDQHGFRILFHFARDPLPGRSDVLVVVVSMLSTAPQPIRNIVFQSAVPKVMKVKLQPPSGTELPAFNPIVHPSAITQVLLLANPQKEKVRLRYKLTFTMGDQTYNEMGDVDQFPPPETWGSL
UniProt Q9P2M7: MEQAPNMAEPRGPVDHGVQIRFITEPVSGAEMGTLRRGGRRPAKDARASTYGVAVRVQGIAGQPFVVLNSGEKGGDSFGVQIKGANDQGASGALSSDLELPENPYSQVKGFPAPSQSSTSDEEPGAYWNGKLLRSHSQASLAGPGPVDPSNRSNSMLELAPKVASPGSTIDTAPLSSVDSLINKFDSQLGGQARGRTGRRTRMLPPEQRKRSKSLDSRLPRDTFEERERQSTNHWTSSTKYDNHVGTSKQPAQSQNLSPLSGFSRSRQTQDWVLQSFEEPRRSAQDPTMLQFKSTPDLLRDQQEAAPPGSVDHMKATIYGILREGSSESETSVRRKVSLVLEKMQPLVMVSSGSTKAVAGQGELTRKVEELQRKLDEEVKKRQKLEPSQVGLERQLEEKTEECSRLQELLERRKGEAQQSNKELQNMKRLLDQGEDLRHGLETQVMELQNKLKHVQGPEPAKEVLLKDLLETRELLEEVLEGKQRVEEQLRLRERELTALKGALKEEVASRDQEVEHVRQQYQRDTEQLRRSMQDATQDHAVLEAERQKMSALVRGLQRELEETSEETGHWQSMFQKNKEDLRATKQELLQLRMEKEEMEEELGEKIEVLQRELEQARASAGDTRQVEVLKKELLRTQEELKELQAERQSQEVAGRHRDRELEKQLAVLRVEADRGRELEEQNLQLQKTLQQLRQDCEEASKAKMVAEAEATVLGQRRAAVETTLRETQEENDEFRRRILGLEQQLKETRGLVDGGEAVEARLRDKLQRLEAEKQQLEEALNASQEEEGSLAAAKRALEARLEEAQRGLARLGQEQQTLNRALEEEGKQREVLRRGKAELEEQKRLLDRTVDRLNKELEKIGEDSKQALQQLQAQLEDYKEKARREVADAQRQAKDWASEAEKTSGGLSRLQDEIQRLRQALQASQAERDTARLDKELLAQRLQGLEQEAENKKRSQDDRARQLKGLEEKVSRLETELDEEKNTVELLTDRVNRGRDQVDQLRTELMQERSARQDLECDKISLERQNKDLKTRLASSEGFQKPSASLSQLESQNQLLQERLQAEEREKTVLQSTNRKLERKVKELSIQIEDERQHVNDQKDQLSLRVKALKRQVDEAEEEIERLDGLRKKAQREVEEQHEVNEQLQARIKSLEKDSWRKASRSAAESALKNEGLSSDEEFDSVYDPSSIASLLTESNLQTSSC
UniProt Q9UBI9: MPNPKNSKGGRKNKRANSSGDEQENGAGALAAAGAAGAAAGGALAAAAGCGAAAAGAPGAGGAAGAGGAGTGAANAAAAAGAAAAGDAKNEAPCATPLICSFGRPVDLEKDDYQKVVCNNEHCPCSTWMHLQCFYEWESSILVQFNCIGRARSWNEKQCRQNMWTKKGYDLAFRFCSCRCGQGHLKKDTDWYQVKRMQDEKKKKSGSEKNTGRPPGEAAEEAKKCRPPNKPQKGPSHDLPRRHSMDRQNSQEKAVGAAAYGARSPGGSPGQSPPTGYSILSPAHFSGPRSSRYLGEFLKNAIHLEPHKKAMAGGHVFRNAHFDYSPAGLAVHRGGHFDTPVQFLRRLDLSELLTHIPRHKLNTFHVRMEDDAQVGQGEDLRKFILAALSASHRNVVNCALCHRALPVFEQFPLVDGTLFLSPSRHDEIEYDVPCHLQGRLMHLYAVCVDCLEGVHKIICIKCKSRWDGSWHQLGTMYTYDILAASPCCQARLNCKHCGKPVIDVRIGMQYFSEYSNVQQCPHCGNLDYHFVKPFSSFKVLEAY

Compound in the test: Nc1ncnc2c1ncn2[C@@H]1O[C@H](COP(=O)(O)OP(=O)(O)OP(=O)(O)O)[C@@H](O)[C@H]1O [adenosine triphosphate]
The experiment in a line: NP40-soluble protein abundance relative to vehicle (solubility fold change) (ratio); higher = more soluble protein in presence of ATP. Particulars: concentration: 1mM. The gist of the method: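 Each value is a fold change relative to the detergent-processed vehicle, calculated per replicate from vsn-normalised intensities. Jurkat crude lysate received eight concentrations (0.1 to 10 mM) for 10 min at room temperature and 3 min at 37 °C, then was solubilised in 0.8% NP40 with benzonase (60 min, 4 °C). The ultracentrifuged supernatant was TMT-labelled and run by LC-MS/MS in three independent experiments.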
As for “UniProt Q9UMZ2-3|Q9UMZ2-4|Q9UMZ2-5|Q9UMZ2-6|Q9UMZ2-7|Q9UMZ2-8|Q9UMZ2-9|Q9UMZ2”, the NP40-soluble protein abundance was found to be 0.929 ± 0.041.
For the target COPS3 (UniProt Q9UNS2), the NP40-soluble protein abundance was 0.907 ± 0.0095.
Consider AP4E1 (UniProt Q9UPM8), for which the NP40-soluble protein abundance stood at 1.11 ± 0.028.
Regarding ANKRD50 (UniProt Q9ULJ7), the NP40-soluble protein abundance came to 0.994 ± 0.12.
The same measure for CHORDC1 (UniProt Q9UHD1): 0.976 ± 0.056; for SLC39A10 (UniProt Q9ULF5): 0.928 ± 0.054; for CROT (UniProt Q9UKG9): 0.994 ± 0.091.
In the case of UniProt Q9UGQ2 and related entries it was 1.01 ± 0.036; in that of UniProt Q9UM21, 0.991 ± 0.11.
Turning to UniProt Q9UHA4, the NP40-soluble protein abundance stood at 1.02 ± 0.095.
The same measure for UniProt Q9UKT9 and related entries: 1.02 ± 0.085; for NENF (UniProt Q9UMX5): 0.955 ± 0.053.
In the case of UniProt Q9UJK0 it was 0.954 ± 0.053; in that of GPATCH8 (UniProt Q9UKJ3), 1.41 ± 0.1.
The same measure for UniProt Q9UKZ1: 1.08 ± 0.049.
As for UniProt Q9UHL0 and related entries, the NP40-soluble protein abundance was found to be 0.994 ± 0.011.
In the case of UniProt Q9UH92 and related entries it was 1.07 ± 0.056.
The same measure for UniProt Q9UHP3 and related entries: 0.925 ± 0.062; for UniProt Q9UK61 and related entries: 1.1 ± 0.025.
On to MED13 (UniProt Q9UHV7), for which the NP40-soluble protein abundance was 1.24 ± 0.11.
In the case of APPL1 (UniProt Q9UKG1) it was 1.05 ± 0.058.
In the case of VPS51 (UniProt Q9UID3) it was 0.965 ± 0.082; in that of UniProt Q9UJX5 and related entries, 0.995 ± 0.092.
The same measure for PRPF19 (UniProt Q9UMS4): 1 ± 0.056.
Consider UniProt Q9P260 and related entries, for which the NP40-soluble protein abundance stood at 1.01 ± 0.048.
For the target DCTN4 (UniProt Q9UJW0), the NP40-soluble protein abundance was 1.01 ± 0.038.
In the case of UniProt Q9ULP9 and related entries it was 0.991 ± 0.022.
In the case of UniProt Q9UII2 it was 1.01 ± 0.27; in that of UniProt Q9UPY8 and related entries, 0.934 ± 0.05.
For UniProt Q9ULL5-3, the NP40-soluble protein abundance amounted to 0.951 ± 0.05.
For UniProt Q9UDT6-2, the NP40-soluble protein abundance amounted to 1.08 ± 0.092.
As for UniProt Q9UJY5 and related entries, the NP40-soluble protein abundance is 0.946 ± 0.03.
In the case of UniProt Q9UBS8 and related entries it was 1.03 ± 0.03.
Regarding CGN (UniProt Q9P2M7), the NP40-soluble protein abundance was 1.07 ± 0.059.
As to HECA (UniProt Q9UBI9), the NP40-soluble protein abundance was determined as 0.998 ± 0.41.
In the case of HECTD1 (UniProt Q9ULT8) it was 0.985 ± 0.015; in that of ANAPC7 (UniProt Q9UJX3), 0.996 ± 0.043.
In the case of MRPS33 (UniProt Q9Y291) it was 1.02 ± 0.19.

These data come from the supplement of paper PMC6411743.
